# Structures can show the parent of a compound that is named as a salt. ± gives the standard deviation of the averaged measurements. Some of the results follow. Single values of this set are uncertain.
# Tested on: Salmonella enterica serovar Typhimurium ST313 D23580
# Assay: normalized bacterial growth (OD600 20 h minus 0 h, interquartile-mean normalized) (fraction of plate interquartile mean); higher = more bacterial growth (less inhibition)
# Settings: LPM (pH 5.8, low phosphate, low Mg2+), concentration: 10 µM, temperature: 37 °C
row,Compound,normalized bacterial growth
1,NCCC[C@](N)(C(=O)O)C(F)F (racemic) [DL-alpha-Difluoromethylornithine hydrochloride],0.905
2,CC(=O)OCC(=O)[C@@]1(O)[C@@H](C)C[C@H]2[C@@H]3CCC4=CC(=O)C=C[C@]4(C)[C@@]3(F)[C@@H](O)C[C@@]21C,0.795
3,CC(=O)Oc1ccc2c(c1OC(C)=O)OCC1(O)Cc3c(cc(OC(C)=O)c(OC(C)=O)c3OC(C)=O)C21 (stereo not given),0.806
4,O=C1c2c(O)cccc2Cc2cccc(O)c21,0.818
5,C#CC(N)CCC(=O)O (stereo not given) [gamma-Acetylinic GABA],1.16
6,O=S(=O)(O)c1cc(N=C=S)ccc1/C=C/c1ccc(N=C=S)cc1S(=O)(=O)O,0.828
7,COc1cc([C@@H]2CC(=O)c3c(O)cc(O)cc3O2)ccc1O,1.08
8,COc1ccc2c(c1)CCC1C2CCC2(C)C(NCCCCCCN3C(=O)C=CC3=O)CCC12 (stereo not given),0.86
9,O=C1C[C@@H](c2ccccc2)Oc2cc(O)cc(O)c21,0.968
10,COC(=O)C1=C(C)NC(C)=C([N+](=O)[O-])C1c1ccccc1C(F)(F)F (stereo not given),1
11,COc1cc(C(=O)OCCCN2CCCN(CCCOC(=O)c3cc(OC)c(OC)c(OC)c3)CC2)cc(OC)c1OC [Dilazep hydrochloride],0.913
12,COc1cc(C(=O)OCCCN2CCCN(CCCOC(=O)c3cc(OC)c(OC)c(OC)c3)CC2)cc(OC)c1OC [Dilazep dihydrochloride],0.986
13,N=C(NC(=O)c1nc(Cl)c(N)nc1N)Nc1ccccc1 [Phenamil methanesulfonate],0.717
14,CC[N+](C)(CC)CCOC(=O)C(O)(c1ccccc1)C1CCCCC1 (stereo not given),0.919
15,CN(C)CCCN1c2ccccc2Sc2ccc(C(F)(F)F)cc21 [Triflupromazine hydrochloride],0.768
16,C[N+]1(C)CCC(OC(=O)C(c2ccccc2)c2ccccc2)CC1 [4-DAMP methiodide],0.969
17,COc1cc(C(=O)O[C@H]2C[C@@H]3CC[C@]2(C)C3(C)C)ccc1O,0.475
18,Oc1cc(O)c2c(c1)O[C@H](c1ccc(O)c(O)c1)[C@@H](O)C2 [(+)-Catechin Hydrate],1.23
19,Cc1[nH]ccc2c1[nH]c1cc(=O)ccc12 [Harmol hydrochloride monohydrate],1.09
20,Cc1[nH]ccc2c1[nH]c1cc(=O)ccc12,0.889
21,CCN(CC)CCOC(=O)C1(C2CCCCC2)CCCCC1 [Dicyclomine hydrochloride],0.838
22,O=c1cc(-c2ccccc2)oc2c(O)c(O)ccc12,0.836
23,CC(N/C(=N\C#N)Nc1ccncc1)C(C)(C)C (stereo not given) [Pinacidil],1.06 ± 0.13
24,NS(=O)(=O)c1cc(C2(O)NC(=O)c3ccccc32)ccc1Cl (stereo not given),0.977
25,CCCCCCCCCCCCCCCC(=O)OC/C=C(C)/C=C/C=C(C)/C=C/C1=C(C)CCCC1(C)C,0.87
26,C=CC(N)CCC(=O)O (stereo not given) [()-gamma-Vinyl GABA],1.11
27,CC(C)c1c(C(=O)Nc2ccccc2)c(-c2ccccc2)c(-c2ccc(F)cc2)n1CC[C@@H](O)C[C@@H](O)CC(=O)O,1.15

# A section from the list above:
row,Compound,normalized bacterial growth
13,N=C(NC(=O)c1nc(Cl)c(N)nc1N)Nc1ccccc1 [Phenamil methanesulfonate],0.717
14,CC[N+](C)(CC)CCOC(=O)C(O)(c1ccccc1)C1CCCCC1 (stereo not given),0.919
15,CN(C)CCCN1c2ccccc2Sc2ccc(C(F)(F)F)cc21 [Triflupromazine hydrochloride],0.768
16,C[N+]1(C)CCC(OC(=O)C(c2ccccc2)c2ccccc2)CC1 [4-DAMP methiodide],0.969
17,COc1cc(C(=O)O[C@H]2C[C@@H]3CC[C@]2(C)C3(C)C)ccc1O,0.475

# Following part.

row,Compound,normalized bacterial growth
1,CC(=O)OCC(=O)[C@@]1(O)CC[C@H]2[C@@H]3CCC4=CC(=O)CC[C@]4(C)[C@H]3[C@@H](O)C[C@@]21C,1.28
2,CCN[C@H]1CN(CCCOC)S(=O)(=O)c2sc(S(N)(=O)=O)cc21 [Brinzolamide],1.18
3,CC(=O)OCC(=O)[C@@]1(O)CC[C@H]2[C@@H]3CCC4=CC(=O)C=C[C@]4(C)[C@@]3(Cl)[C@@H](Cl)C[C@@]21C,0.996
4,O=C(O)CN1C(=O)c2cccc3cccc(c23)C1=O,0.923
5,CC(=O)O[C@@H]1C[C@H]2C(C)(C)[C@@H](O)CC[C@]2(C)[C@H]2CC[C@@]3(C)[C@H](c4ccoc4)OC(=O)[C@H]4O[C@]43[C@@]21C [beta-DIHYDROGEDUNOL],0.757
6,CCCCN(CCCC)CCCOC(=O)c1ccc(N)cc1,1.14
7,Cc1ccc(C(=O)c2ccc(CC(=O)O)n2C)cc1,1.12
8,Cc1ccc(C(=O)c2ccc(CC(=O)O)n2C)cc1 [Tolmetin sodium salt dihydrate],1.11
9,COC(=O)Nc1nc2cc(C(=O)c3cccs3)ccc2[nH]1 [Nocodazole],0.91
10,CC(=O)OCC(=O)[C@@]1(O)CC[C@H]2[C@@H]3CCC4=CC(=O)CC[C@]4(C)[C@@]3(F)[C@@H](O)C[C@@]21C,1.01
11,CC(=O)OCC(=O)[C@@]1(O)CC[C@H]2[C@@H]3CCC4=CC(=O)CC[C@]4(C)[C@@]3(F)[C@@H](O)C[C@@]21C [Fludrocortisone acetate],0.971
12,O=C(O)CCCCCCCC(=O)O [Azelaic acid],1.23
13,CC(=O)O[C@@H]1C[C@H]2C(C)(C)C(=O)CC[C@]2(C)[C@H]2CC[C@@]3(C)[C@H](c4ccoc4)OC(=O)[C@H]4O[C@]43[C@@]21C,1.03
14,CC12CCC3C(CC3(C)C)C(C)(CCC1=O)O2 (stereo not given),0.749
15,CC(=Cc1ccc(C(=O)O)cc1)c1ccc2c(c1)C(C)(C)CCC2(C)C,1.04
16,COc1ccc2c3c([nH]c2c1)[C@H]1C[C@H]2[C@H](C[C@@H](O)[C@H](OC)[C@H]2C(=O)O)CN1CC3 [Reserpinic acid hydrochloride],1.32
17,OCCN1CCN(CC/C=C2/c3ccccc3Sc3ccc(C(F)(F)F)cc32)CC1 [cis-(Z)-Flupenthixol dihydrochloride],0.922
18,COc1c(-c2coc3cc4c(cc3c2=O)CC(O)C(C)(C)O4)ccc2c1C=CC(C)(C)O2 (stereo not given),0.687
19,Cc1cn[nH]c1 [4-Methylpyrazole hydrochloride],0.925
20,NCCc1c[nH]cn1 [Histamine dihydrochloride],0.921
21,Nc1[nH]cnc2ncnc1-2,0.993
22,CC(=O)[C@@]1(O)CC[C@H]2[C@@H]3C=C(Cl)C4=CC(=O)[C@@H]5C[C@@H]5[C@]4(C)[C@H]3CC[C@@]21C,0.538
23,CC[N+](C)(C)c1cccc(O)c1 [Edrophonium chloride],1.31
24,COc1ccc2c(=O)c(OC)c(-c3ccccc3)oc2c1,1.07
25,CN1CCC(=C2c3ccccc3C=Cc3ccccc32)CC1 [Cyproheptadine hydrochloride],0.67
26,NCC(O)C1CCCCCCC1 (stereo not given) [2-Cyclooctyl-2-hydroxyethylamine hydrochloride],0.997
27,N#Cc1c(-c2ccccc2)no[n+]1[O-] [4-Phenyl-3-furoxancarbonitrile],0.991

row,Compound,normalized bacterial growth
1,CC(C)(C)NC[C@@H](O)COc1cccc2c1CCCC2=O [(+) -Levobunolol hydrochloride],0.567
2,CCCNC[C@H](O)COc1ccccc1C(=O)CCc1ccccc1 [(S)-(-)-propafenone hydrochloride],0.796
3,COc1ccc(-c2cc(=O)c3ccccc3o2)cc1,0.577
4,N=C(N)NC(=N)NCCc1ccccc1,0.861
5,C[C@H]1O[C@H](O[C@H]2[C@H](O)[C@@H](O)[C@@H](O[C@H]3[C@H](O)[C@@H](O)C(O)O[C@@H]3CO)O[C@@H]2CO)[C@H](O)[C@@H](O)[C@@H]1N[C@H]1C=C(CO)[C@@H](O)[C@H](O)[C@H]1O (stereo not given in full),1.28
6,CC(C)(C=O)Cc1cc(C(C)(C)C)c(O)c(C(C)(C)C)c1,1.08
7,CC(C)(CO)[C@@H](O)C(=O)NCCC(=O)NCCSSCCNC(=O)CCNC(=O)[C@H](O)C(C)(C)CO,0.969
8,CN1CCN(CC/C=C2/c3ccccc3Sc3ccc(S(=O)(=O)N(C)C)cc32)CC1,0.933
9,CN1CCN(CC/C=C2/c3ccccc3Sc3ccc(S(=O)(=O)N(C)C)cc32)CC1 [Thiothixene hydrochloride],0.995
10,NC1(C(=O)O)CCCCC1 [1-Amino-1-cyclohexanecarboxylic acid hydrochloride],0.748
11,NNCCc1ccccc1 [Phenelzine sulfate],0.63
12,CC(=O)S[C@@H]1CC2=CC(=O)CC[C@]2(C)[C@H]2CC[C@@]3(C)[C@@H](CC[C@@]34CCC(=O)O4)[C@H]12,0.892
13,CC(=O)S[C@@H]1CC2=CC(=O)CC[C@]2(C)[C@H]2CC[C@@]3(C)[C@@H](CC[C@@]34CCC(=O)O4)[C@H]12 [Spironolactone],0.951 ± 0.1
14,CCCc1cc(C(N)=S)ccn1,0.992
15,CC(Cc1cccc(C(F)(F)F)c1)NCCOC(=O)c1ccccc1 (stereo not given),0.511
16,CNc1ncnc2c1ncn2[C@@H]1O[C@H](CO)[C@@H](O)[C@H]1O [N6-methyladenosine],1.18
17,CNc1ncnc2c1ncn2[C@@H]1O[C@H](CO)[C@@H](O)[C@H]1O [N6-Methyladenosine],1.04
18,N[C@@H](CC(=O)O)C(=O)O [L-Aspartic acid],0.862
19,C[C@@H](O)[C@H]1C(=O)N2C(C(=O)O)=C(SCCNC=N)C[C@H]12 [Imipenem],0.819
20,c1ccc2c(c1)CCCC2C1=NCCN1 (stereo not given) [Tetrahydrozoline hydrochloride],1.17
21,C=C(C)[C@@H]1CC[C@]2(C(=O)O)CC[C@]3(C)[C@H](CC[C@@H]4[C@@]5(C)CC[C@H](O)C(C)(C)[C@@H]5CC[C@]43C)[C@@H]12,1.0001 ± 0.00016
22,O=C(/C=C/c1ccc(O)c(O)c1)c1ccc(O[C@@H]2O[C@H](CO)[C@@H](O)[C@H](O)[C@H]2O)c(O)c1O,0.972
23,Oc1ccc2c(c1)OC[C@]1(O)Cc3cc(O)c(O)cc3[C@H]21,0.573
24,CC(C)=CCC[C@](C)(O)[C@H]1CC[C@]2(C)[C@@H]1CC[C@@H]1[C@@]3(C)CCC(=O)C(C)(C)[C@@H]3CC[C@]12C,0.993
25,CN=c1nc(-c2ccccc2)n(-c2ccccc2)s1,0.836
26,O=C1NCCN1c1ncc([N+](=O)[O-])s1 [Niridazole],0.0464

# Looked up above:
# In normalized bacterial growth, CC[N+](C)(CC)CCOC(=O)C(O)(c1ccccc1)C1CCCCC1 (stereo not given) is entered as 0.919
# In normalized bacterial growth, CC(=Cc1ccc(C(=O)O)cc1)c1ccc2c(c1)C(C)(C)CCC2(C)C is entered as 1.04

# From the supplement of paper PMC10398353
